Values quoted from earlier work, collected in patent US20070009535A1 (priority 2005, published 2007).
For at least one compound, name, drawing or mass did not settle the structure.

Test system: acute myelogenous leukemia
Details: patients with valspodar-modulated efflux, valspodar arm (control arm 5 months, P=0.07)

Q: Which median disease-free survival does the source give for `C/C=C/C[C@@H](C)C(=O)[C@H]1C(=O)N[C@@H](C(C)C)C(=O)N(C)CC(=O)N(C)[C@@H](CC(C)C)C(=O)N[C@@H](C(C)C)C(=O)N(C)[C@@H](CC(C)C)C(=O)N[C@@H](C)C(=O)N[C@H](C)C(=O)N(C)[C@@H](CC(C)C)C(=O)N(C)[C@@H](CC(C)C)C(=O)N(C)[C@@H](C(C)C)C(=O)N1C` [valspodar] here?
A: Its median disease-free survival is 14 months.
